{"source": "PubChem BioAssay AID901", "about": "(National Center for Advancing Translational Sciences (NCATS), 2007)", "note": "Some of the results follow. The main result of the screen is listed elsewhere. These columns were measured beside it and carry no call. Compounds called inactive in the main read-out are mostly missing here. Words in brackets tell the shape of the fitted curve; partial curves, single points and poor fits give uncertain potencies."}
{"test": "qHTS Assay for Identifying the Cell-Membrane Permeable IMPase Inhibitors", "conditions": "CHO-M1 cells, IP1 accumulation, HTRF TR-FRET ratio; measured here: donor channel 620 nm AC50"}
{"smiles": "O=C(CN1CCN(C(=O)c2cccc(F)c2)CC1)NC1CCCCC1", "AC50": "0.01 µM [falling, full curve, poor fit]"}
{"smiles": "COc1ccccc1-n1c(C)nc2cc(C(=O)O)ccc21", "AC50": "10 µM [falling, partial curve, poor fit]"}
{"smiles": "COC(=O)c1c(C(C)=O)cnc2ccc(Br)cc12", "AC50": "3.16 µM [rising, full curve, poor fit]"}
{"smiles": "COc1ccc(OC)c(C2CC(=O)c3c([nH]c(C(=O)OCc4ccc(C)cc4)c3C)C2)c1", "note": "(stereo unspecified)", "AC50": "31.6 µM [rising, single point]"}
{"smiles": "Cc1cccc(C(=O)O/N=C2\\CCSc3ccc(C)cc32)c1", "AC50": "10 µM [falling, partial curve]"}
{"smiles": "Cc1nc2cc(NC(=O)NCc3ccco3)ccc2o1", "AC50": "2.24 µM [rising, full curve]"}
{"smiles": "CCC(=O)Nc1ccc(-c2cc(-c3ccccc3)nc(-c3ccc(NC(=O)CC)cc3)n2)cc1", "AC50": "0.02 µM [falling, full curve]"}
{"smiles": "O=C(NCc1ccco1)c1sc2cc(Cl)ccc2c1Cl", "AC50": "0.00501 µM [falling, full curve, poor fit]"}
{"smiles": "CSc1nc2c(c(=O)[nH]c(=O)n2C)n1C/C=C(\\C)Cl", "AC50": "0.0251 µM [falling, full curve, poor fit]"}
{"smiles": "CCOc1ccc(C(=O)Nc2ccc(NC(=O)c3ccco3)c(Cl)c2)cc1Br", "AC50": "31.6 µM [rising, single point]"}
{"smiles": "Cc1ccc(-n2c(=O)cc(N3CCN(Cc4ccccc4)CC3)[nH]c2=O)cc1", "AC50": "0.141 µM [falling, full curve]"}
{"smiles": "Cc1ccc(O)c(NC(=O)c2cc3nc4c(c(C(F)(F)F)n3n2)CCc2ccccc2-4)c1", "AC50": "10 µM [falling, partial curve, poor fit]"}
{"smiles": "CCOc1ccc(CCNC(=O)c2ccc(N3CCCC3=O)cc2)cc1OCC", "AC50": "5.01 µM [rising, single point]"}
{"smiles": "COC(=O)CSc1nnc(CNC(=O)c2ccccc2OC)n1C", "AC50": "31.6 µM [falling, partial curve]"}
{"smiles": "Fc1cccc(CSc2ncnc3c2oc2ccccc23)c1", "AC50": "20 µM [rising, single point]"}
{"smiles": "S=C(c1ccc(-c2ccccc2Cl)o1)N1CCOCC1", "AC50": "1 µM [falling, full curve]"}
{"smiles": "COC(=O)C(CC(C)C)NC(=O)CSc1nc(-c2ccccc2)c(C#N)c(=O)[nH]1", "note": "(stereo unspecified)", "AC50": "12.6 µM [rising, single point]"}
{"smiles": "Cc1ccc(-n2c(SCC(=O)Nc3ccc4c(c3)OCO4)nnc2-c2ccccn2)cc1", "AC50": "0.00501 µM [falling, full curve, poor fit]"}
{"smiles": "O=C(Nc1ccccc1)OCc1cn(-c2ccc(Cl)cc2)nn1", "AC50": "20 µM [rising, partial curve, poor fit]"}
{"smiles": "COc1ccc(NC(=O)CCCCn2c(=O)[nH]c3ccccc3c2=O)cc1", "AC50": "25.1 µM [falling, single point]"}
{"smiles": "Cn1c(=O)c2c(ncn2CC(=O)Nc2cccc(Cl)c2Cl)n(C)c1=O", "AC50": "5.62 µM [falling, single point]"}
{"smiles": "CSc1nsc(SCCN2C(=O)c3ccccc3C2=O)n1", "AC50": "14.1 µM [falling, single point]"}
{"smiles": "O=C(NCc1ccc(F)cc1)c1ccc(CS(=O)(=O)Cc2ccc(F)cc2)o1", "AC50": "0.00316 µM [falling, full curve, poor fit]"}
{"smiles": "CC(=O)c1nc(N2C(=O)CC(Cc3ccc(C)cc3)C2=O)sc1C", "note": "(stereo unspecified)", "AC50": "31.6 µM [rising, single point]"}
{"smiles": "Cc1ccc(-n2c(C)cc(C)c(C#N)c2=O)cc1", "AC50": "10 µM [falling, partial curve]"}
{"smiles": "CCOc1cccc(C2C(C(=O)c3ccc(C)o3)=C(O)C(=O)N2Cc2ccncc2)c1", "note": "(stereo unspecified)", "AC50": "12.6 µM [rising, single point]"}
{"smiles": "Cc1ccc(C2C(C(=O)c3ccco3)=C(O)C(=O)N2c2nnc(C)s2)cc1", "note": "(stereo unspecified)", "AC50": "31.6 µM [rising, single point]"}
{"smiles": "COc1cc2cc(C(=O)Nc3ccccc3)c(N)nc2cc1OC", "AC50": "0.00794 µM [rising, full curve, poor fit]"}
{"smiles": "Cc1csc(NC(=O)CSc2nnc(-c3ccncc3)n2C)n1", "AC50": "0.0158 µM [rising, full curve, poor fit]"}
{"smiles": "COc1cccc(-c2nnc(NC(=O)Cc3cccs3)s2)c1", "AC50": "31.6 µM [rising, single point]"}
{"smiles": "Cc1sc2ncnc(Nc3ccc(N4CCOCC4)cc3)c2c1-c1ccccc1", "AC50": "35.5 µM [rising, single point]"}
{"smiles": "COc1ccc(C(=O)C(OC(=O)c2ccc(C)c(NC(C)=O)c2)c2ccccc2)cc1", "note": "(stereo unspecified)", "AC50": "0.0251 µM [falling, full curve, poor fit]"}
{"smiles": "CCOC(=O)N1CCN(S(=O)(=O)c2cc(OCC)ccc2OCC)CC1", "AC50": "0.00794 µM [rising, full curve, poor fit]"}
{"smiles": "Cn1c(SCc2nc(-c3ccccc3)no2)nnc1-c1cccs1", "AC50": "0.794 µM [falling, full curve]"}
{"smiles": "NC(=O)C1(N2CCCCC2)CCN(C(=O)NC2CCCCC2)CC1", "AC50": "3.98 µM [falling, partial curve, poor fit]"}
{"smiles": "O=C(Cn1c(=O)n(CC2CCC(C(=O)NCCc3ccccc3)CC2)c(=O)c2ccccc21)Nc1ccccc1", "note": "(stereo unspecified)", "AC50": "0.447 µM [falling, partial curve]"}
{"smiles": "Cc1onc(-c2c(F)cccc2Cl)c1C(=O)Nc1cccc(Cn2cccn2)c1", "AC50": "5.62 µM [rising, single point]"}
{"smiles": "CC(=C1C(=O)c2ccccc2C1=O)N1CCN(c2ccccn2)CC1", "AC50": "25.1 µM [rising, single point]"}
{"smiles": "O=C(COC(=O)c1cn(-c2ccccc2)nc1-c1ccc(F)cc1)Nc1ncc(Cl)cc1Cl", "AC50": "20 µM [rising, single point]"}
{"smiles": "Cc1cc(NC(=O)CN2CCC(C)CC2)nc2c1c(=O)oc1ccccc12", "AC50": "4.47 µM [falling, single point]"}
{"smiles": "Cc1ccc(/C=C/C(=O)Nc2ccccc2C(N)=O)o1", "AC50": "0.708 µM [falling, single point]"}
{"smiles": "Cc1cccc(NC(=O)CCS(=O)(=O)c2cc(Br)cc3c2N(C(=O)C2CC2)CC3)c1", "AC50": "31.6 µM [rising, single point]"}
{"smiles": "COCCN1C(=O)c2ccccc2C(C(=O)NCCN(C)C)C1c1ccc(F)cc1", "note": "(stereo unspecified)", "AC50": "0.02 µM [rising, full curve, poor fit]"}
{"smiles": "C/C(N)=C(/C#N)C(=O)COC(=O)c1cc(-c2ccc(C)cc2)nc2ccccc12", "AC50": "4.47 µM [rising, single point]"}
{"smiles": "COc1nc2ccc(C)cc2cc1-c1noc(-c2ccccc2)n1", "AC50": "31.6 µM [rising, single point]"}
{"smiles": "COc1ccc(-n2c(-c3ccccc3)nnc2-c2ccc(Cl)cc2)cc1", "AC50": "0.0126 µM [rising, full curve, poor fit]"}
{"smiles": "O=C(Nc1cccc(Cl)c1N1CCCC1)c1ccc(Br)o1", "AC50": "2.51 µM [falling, full curve]"}
{"smiles": "CC(=O)N1CC2(CC(=O)OC(C)C)CN(C(C)=O)CC(CC(=O)OC(C)C)(C1)C2=O", "AC50": "28.2 µM [falling, single point]"}
{"smiles": "Cn1c(=O)c2c(nc(NCc3ccco3)n2Cc2ccccc2Cl)n(C)c1=O", "AC50": "0.0355 µM [falling, partial curve, poor fit]"}
{"smiles": "CCOC(=O)c1cnn(-c2nc3c(C)cccc3s2)c1C(F)(F)F", "AC50": "31.6 µM [falling, single point]"}
{"smiles": "CC(=O)OC1COC(n2ccc3cc([N+](=O)[O-])ccc32)C(OC(C)=O)C1OC(C)=O", "note": "(stereo unspecified)", "AC50": "31.6 µM [falling, single point]"}
{"smiles": "CCOC(=O)CSc1nc(C(C)C)nc2ccccc12", "AC50": "15.8 µM [rising, partial curve, poor fit]"}
{"smiles": "COc1ccccc1NC(=O)c1nn(-c2ccc(Cl)cc2)ccc1=O", "AC50": "0.158 µM [falling, full curve, poor fit]"}
{"smiles": "Nc1nc2ccc(C(=O)NC3CCCCC3)cc2s1", "AC50": "31.6 µM [falling, partial curve, poor fit]"}
{"smiles": "COc1ccc2cc(/C=C/C(=O)c3ccco3)c(Cl)nc2c1", "AC50": "20 µM [falling, single point]"}
{"smiles": "CNC(=O)c1ccccc1NC(=O)c1ccc(C)c(S(=O)(=O)N2CCCCC2)c1", "AC50": "5.01 µM [rising, single point]"}
{"smiles": "CC(C)CCOc1ccc(Cl)cc1CN1CCOCC1", "AC50": "0.631 µM [falling, full curve, poor fit]"}
{"smiles": "O=C1CN(C(=O)COC(=O)Cc2ccsc2)c2ccccc2N1", "AC50": "0.0398 µM [falling, full curve]"}
{"smiles": "O=C1c2ccccc2C(=O)N1CCN1CCc2ccccc21", "AC50": "0.0251 µM [rising, full curve, poor fit]"}
{"smiles": "CC(=O)N1CCN(CC(=O)Nc2c(Cl)cc(Cl)cc2Cl)CC1", "AC50": "12.6 µM [falling, partial curve]"}
{"smiles": "O=C(NCCN1CCCCC1)c1ccco1", "AC50": "0.251 µM [falling, full curve]"}
{"smiles": "COc1ccccc1-c1n[nH]c(=S)o1", "AC50": "12.6 µM [rising, partial curve]"}
{"smiles": "O=C(c1ccc(C#CC2(O)CCCCC2)cc1)N1CCOCC1", "AC50": "12.6 µM [falling, single point]"}
{"smiles": "O=C(CSc1nnc(-c2cccs2)o1)NCC1CN(Cc2ccccc2)CCO1", "note": "(stereo unspecified)", "AC50": "0.355 µM [falling, full curve, poor fit]"}
{"smiles": "Cc1ccc(C)c(N2CCN(c3nc4ccc(C(=O)c5ccccc5)cc4n4cnnc34)CC2)c1", "AC50": "17.8 µM [rising, partial curve, poor fit]"}
{"smiles": "O=C(Nc1c2c(nc3ccccc13)CCCC2)c1ccccc1Br", "AC50": "35.5 µM [rising, single point]"}
